Laboratory results from patent publication US5656206A, “Substituted naphthopyrans” (Transitions Optical, Inc., priority 1995, dated 1997).
Some entries share one result that the patent states for a list of compounds.

Experiment: Photochromic response rates on an optical bench (polymer test squares)
Format: physicochemical
Conditions: conclusion from Table 1
Description: Testing was done with the photochromic naphthopyrans of the Examples incorporated into polymeric samples by the following method. The quantity of naphthopyran calculated to yield a 1.5 times 10^-3 molal solution was added to a flask containing 50 grams of a monomer blend of 4 parts ethoxylated bisphenol A dimethacrylate (BPA 2EO DMA), 1 part poly(ethyleneglycol) 600 dimethacrylate, and 0.033 weight percent 2,2'-azobis(2-methyl propionitrile) (AIBN). The naphthopyran was dissolved into the monomer blend by stirring and gentle heating, if necessary. After a clear solution was obtained, it was poured into a flat sheet mold having the interior dimensions of 2.2 mm×6 inches (15.24 cm)×6 inches (15.24 cm). The mold was sealed and placed in a horizontal air flow, programmable oven set to increase the temperature from 40° C. to 95° C. over a 5 hour interval, hold the temperature at 95° C. for 3 hours and then lower it to 60° C. for at least 2 hours before the end of the curing cycle. After the mold was opened, the polymer sheet was cut using a diamond blade saw into 2 inch (5.1 centimeters) test squares.
The photochromic test squares prepared in Part A were tested for photochromic response rates on an optical bench. […]
Change in optical density (ΔOD) was determined by inserting a test square in the bleached state into the sample holder, adjusting the transmittance scale to 100%, opening the shutter from the Xenon lamp to provide ultraviolet radiation to change the test square from the bleached state to an activated (i.e., darkened) state, measuring the transmittance in the activated state, and calculating the change in optical density according to the formula Δ OD=log(100/%Ta) where %Ta is the percent transmittance in the activated state and the logarithm is to the base 10.
The Δ OD/Min, which represents the sensitivity of the photochromic compound's response to UV light, was measured over the first five (5) seconds of UV exposure, then expressed on a per minute basis. […]
In the case of `COc1ccc(C2(c3ccc(OC)cc3)C=Cc3c(CO)c(C)c4ccc(OC)cc4c3O2)cc1` [Example 1, 2,2-bis(4-methoxyphenyl)-5-hydroxymethyl-6-methyl-9-methoxy-2H-naphtho[1,2-b]pyran], the “bleach rate, i.e., fade rate (in words)” value is reported as “acceptable bleach rate”. For `COc1ccc(C2(c3ccc(OC)cc3)C=Cc3c(CO)c(-c4ccccc4)c4ccccc4c3O2)cc1` [Example 2, 2,2-bis(4-methoxyphenyl)-5-hydroxymethyl-6-phenyl-2H-naphtho[1,2-b]pyran], the “bleach rate, i.e., fade rate (in words)” value was “acceptable bleach rate”. With `COc1ccc(C2(c3ccc(OC)cc3)C=Cc3c(COC(C)=O)c(-c4ccccc4)c4ccccc4c3O2)cc1` [Example 3, 2,2-bis(4-methoxyphenyl)-5-acetoxymethyl-6-phenyl-2H-naphtho[1,2-b]pyran] the “bleach rate, i.e., fade rate (in words)” value was “acceptable bleach rate”.
